Measured values as given in article PMC7177946, “Effect of Ferulic Acid, a Phenolic Inducer of Fungal Laccase, on 26S Proteasome Activities In Vitro” (International Journal of Molecular Sciences, 2020).

These molecules were tested on T1, 26S proteasome (T. versicolor), chymotrypsin-like (CHTL) site, β5 subunit (assay: fluorogenic peptidase assay, Suc-LLVY-AMC). Conditions: 1000 µM; 30 min preincubation; 100 µM Suc-LLVY-AMC, 2 mM ATP, 5 mM MgCl2, pH 8.0, 37 °C; partially purified native 26S (1-step).
T1 construct: gene PRE2; native 26S complex (20S core plus one or two 19S caps); beta subunits mature with N-terminal Thr; with Proteasome subunit beta type-7 (beta2); Proteasome subunit beta type-6 (beta1)
Assay type: biochemical, Trametes versicolor

Compared with `COc1cc(C(=O)O)cc(OC)c1O` [syringic acid, 3,5-dimethoxy-4-hydroxybenzoic acid], `COc1cc(C(=O)O)ccc1O` [vanillic acid, 4-hydroxy-3-methoxybenzoic acid] is lower in “Remaining CHTL Activity ^1 (% of Control)” value: 102 for the first, 100 for the second.

In the case of `O=C(O)c1ccc(O)c(O)c1` [protocatechuic acid, 3,4-dihydroxybenzoic acid], the “Remaining CHTL Activity ^1 (% of Control)” value is reported as 103.
